Drawing on publication PMC6335621 (Chemical Science, 2018), this text covers IC50 for one molecule.

One assay deals with HeLa. Put plainly: In vitro cytotoxicity. Format: cell-based, human. The settings on record: read-out: IC50 HeLa; MTT assay, 72 h incubation. A general note: Formazan colour is commonly taken as a measure of viable cells.
For the next assay, the system named is MCF-7. The assay can be described thus: In vitro cytotoxicity. Type of assay: cell-based, human. The settings on record: read-out: IC50 MCF-7; MTT assay, 72 h incubation.

What is called IC50 is the point on the concentration scale where inhibition reaches its midpoint. Regarding `N.N.[Cl][Pt][Cl]` [Cisplatin], the values for the IC50 in the assay on HeLa and in the assay on MCF-7 were 3.8 ± 0.51 µM and 13.2 ± 1.03 µM, respectively.
